The text below walks through data of paper PMC7392604.

Sequences of proteins named here, by UniProt entry; tags and fusion partners are left off.
UniProt Q8R3Z5: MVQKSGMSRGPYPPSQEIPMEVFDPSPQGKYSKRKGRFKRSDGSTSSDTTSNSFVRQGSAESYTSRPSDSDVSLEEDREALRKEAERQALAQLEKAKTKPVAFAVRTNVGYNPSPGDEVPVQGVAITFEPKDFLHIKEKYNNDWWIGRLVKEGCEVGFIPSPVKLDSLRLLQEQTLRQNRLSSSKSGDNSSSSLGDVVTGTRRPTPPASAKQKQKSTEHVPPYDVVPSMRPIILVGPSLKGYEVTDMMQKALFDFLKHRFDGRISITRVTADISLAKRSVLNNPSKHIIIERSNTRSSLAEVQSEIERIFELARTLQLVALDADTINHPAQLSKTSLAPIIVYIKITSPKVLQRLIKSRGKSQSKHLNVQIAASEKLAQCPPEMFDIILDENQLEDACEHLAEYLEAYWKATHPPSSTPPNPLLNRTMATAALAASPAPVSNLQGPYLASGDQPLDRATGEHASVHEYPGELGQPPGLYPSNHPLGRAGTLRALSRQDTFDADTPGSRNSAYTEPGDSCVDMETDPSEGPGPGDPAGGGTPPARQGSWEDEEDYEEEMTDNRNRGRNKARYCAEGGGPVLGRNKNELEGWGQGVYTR
UniProt P54283: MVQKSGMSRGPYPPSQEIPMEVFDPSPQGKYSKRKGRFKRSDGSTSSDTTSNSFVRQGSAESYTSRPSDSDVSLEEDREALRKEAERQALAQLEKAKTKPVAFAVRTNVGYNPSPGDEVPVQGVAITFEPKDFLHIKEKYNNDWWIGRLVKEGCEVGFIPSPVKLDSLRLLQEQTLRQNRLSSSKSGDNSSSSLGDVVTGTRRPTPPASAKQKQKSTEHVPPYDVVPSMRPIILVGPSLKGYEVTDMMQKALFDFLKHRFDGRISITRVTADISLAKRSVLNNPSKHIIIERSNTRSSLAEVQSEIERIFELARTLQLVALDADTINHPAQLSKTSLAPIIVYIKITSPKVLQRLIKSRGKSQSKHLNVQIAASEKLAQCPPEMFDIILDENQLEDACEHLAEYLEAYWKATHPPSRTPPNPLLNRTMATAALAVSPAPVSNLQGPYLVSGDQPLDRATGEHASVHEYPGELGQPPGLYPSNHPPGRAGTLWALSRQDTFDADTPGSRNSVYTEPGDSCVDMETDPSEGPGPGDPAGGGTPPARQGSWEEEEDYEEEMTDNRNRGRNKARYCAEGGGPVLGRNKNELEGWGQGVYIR

These are yes or no findings as the source states them, for the method shown. In cells and extracts the contact can be indirect. Some entries that bind do so weakly or less than the wild type. For part of these data: Tags and fused reporters may be left off the sequences shown.

Test [1] concerns the target L-type voltage-gated calcium channel beta-1 subunit (endogenous, mouse brain) (mouse (endogenous in brain)) (UniProt Q8R3Z5). Put plainly: co-IP; mouse brain homogenates of wild-type and Tau KO mice, treated with 1 mM cross-linker DSP, mild co-IP buffer (10 mM Tris pH 7.5, 10 mM NaCl, 3 mM MgCl2, 1 mM EGTA, 0.05% Nonidet P-40); LVGCC-β1 immunoprecipitated (5 µg antibody, Protein G magnetic beads), blotted for BIN1; complex reduced in Tau KO brains.

The target in test [2] is L-type voltage-gated calcium channel beta-1 subunit (endogenous, rat hippocampal neurons) (rat (endogenous in primary hippocampal neurons)) (UniProt P54283). Put plainly: proximity ligation; fixed, permeabilized primary rat hippocampal neurons; primary antibodies for BIN1 (sc-30099) and LVGCC-β1 (S7-18), Duolink In Situ Fluorescence kit; puncta per field of view; untransduced, AAV-mKate2 or AAV-BIN1-mKate2; also with Tau ASO or scrambled ASO (1 µM), Tau reduction decreased the interaction.

With “BIN1 (endogenous, mouse brain) (from UniProt O08539 1-588)”, the binding result in test [1] is given as “binds”.

B1: human BIN1 isoform 1 tagged with mKate2 at the C-terminus (protein, UniProt O00499 1-593)
chain: MAEMGSKGVTAGKIASNVQKKLTRAQEKVLQKLGKADETKDEQFEQCVQNFNKQLTEGTRLQKDLRTYLASVKAMHEASKKLNECLQEVYEPDWPGRDEANKIAENNDLLWMDYHQKLVDQALLTMDTYLGQFPDIKSRIAKRGRKLVDYDSARHHYESLQTAKKKDEAKIAKPVSLLEKAAPQWCQGKLQAHLVAQTNLLRNQAEEELIKAQKVFEEMNVDLQEELPSLWNSRVGFYVNTFQSIAGLEENFHKEMSKLNQNLNDVLVGLEKQHGSNTFTVKAQPSDNAPAKGNKSPSPPDGSPAATPEIRVNHEPEPAGGATPGATLPKSPSQLRKGPPVPPPPKHTPSKEVKQEQILSLFEDTFVPEISVTTPSQFEAPGPFSEQASLLDLDFDPLPPVTSPVKAPTPSGQSIPWDLWEPTESPAGSLPSGEPSAAEGTFAVSWPSQTAEPGPAQPAEASEVAGGTQPAAGAQEPGETAASEAASSSLPAVVVETFPATVNGTVEGGSGAGRLDLPPGFMFKVQAQHDYTATDTDELQLKAGDVVLVIPFQNPEEQDEGWLMGVKESDWNQHKELEKCRGVFPENFTERVP
Regarding B1, the binding entry in test [2] is on record as “binds”.

B2: BIN1 (endogenous, rat hippocampal neurons) (protein, UniProt O08839 1-588)
chain: MAEMGSKGVTAGKIASNVQKKLTRAQEKVLQKLGKADETKDEQFEQCVQNFNKQLTEGTRLQKDLRTYLASVKAMHEASKKLSECLQEVYEPEWPGRDEANKIAENNDLLWMDYHQKLVDQALLTMDTYLGQFPDIKSRIAKRGRKLVDYDSARHHYESLQTAKKKDEAKIAKPVSLLEKAAPQWCQGKLQAHLVAQTNLLRNQAEEELIKAQKVFEEMNVDLQEELPSLWNSRVGFYVNTFQSIAGLEENFHKEMSKLNQNLNDVLVSLEKQHGSNTFTVKAQPSDSAPEKGNKSPSPPPDGSPAATPEIRVNHEPEPASGASPGATIPKSPSQLRKGPPVPPPPKHTPSKEMKQEQILSLFDDAFVPEISVTTPSQFEAPGPFSEQASLLDLDFEPLPPVASPVKAPTPSGQSIPWDLWEPTESQAGVLPSGEPSSAEGSFAVAWPSQTAEPGPAQPAEASEVVGGTQEPGETAASEATSSSLPAVVVETFSATVNGAVEGSTTTGRLDLPPGFMFKVQAQHDYTATDTDELQLKAGDVVLVIPFQNPEEQDEGWLMGVKESDWNQHKELEKCRGVFPENFTERVQ
As for B2, in test [2], the binding entry is recorded as “binds”.
